Assay results from US12650423B2, “Pharmaceutical compositions and use thereof” (HADASIT MEDICAL RESEARCH SERVICES & DEVELOPMENT LTD., priority 2020, dated 2026).
At least one compound was matched to its structure with a doubt left.

Experiments:
IFN-g inducible genes = experiment: In-vitro validation of effect on IFN-g inducible genes (mouse LivMet cells, human primary lung cells); type: cell-based
mouse DTH model = experiment: Mouse delayed-type hypersensitivity (DTH) model, oxazalone ear swelling; type: in vivo
Experimental: Mouse DTH in-vivo assay is an inflammatory model which is known as type IV hypersensitivity reactions and is mediated by soluble antigens primarily involving CD4+ or CD8+ T cell activation. This assay is characterized by the release of mediators from activated T cells. The T cells then activate local endothelial cells and recruit macrophages, which results in local inflammation and swelling. In this assay, female BALB/c mice were sensitized on the shaved abdominal skin with 100 μl of 2% oxazalone dissolved in acetone/olive oil [4:1 (vol/vol)] applied topically (day 0). DTH sensitivity was elicited 6 days later by challenging the mice with 20 μl of 0.5% oxazalone in acetone/olive oil, 10 μl administered topically to each side of the right ear. Control group was subcutaneously injected with Dexamethasone 100 μg/mouse in a total volume of 200 μl. 24 hr after challenge the swelling of the right ear was measured using a Micrometer, digital caliper (Mitutoyo Corp, Tokyo, Japan). The swelling of the left ear was served as control and the readout of this experiment model was the delta between the right and left ear (FIG. 15E).

Structure (SMILES) | anti-inflammatory effect in-vitro (IFN-g inducible genes) | anti-inflammatory effect in-vivo (mouse DTH model; in-vivo) | effect in mouse DTH model (mouse DTH model; BALB/c mice, oxazalone challenge of right ear, 24 hr after challenge, histology FIGS. 15C-15D)
CCc1cnn2c(NCc3ccc[n+]([O-])c3)cc(N3CCCC[C@H]3CCO)nc12 [Dinaciclib] | significant anti-inflammatory effect | significant anti-inflammatory effect | 
O=C(O)c1ccc(-n2nc(-c3ccccc3O)nc2-c2ccccc2O)cc1 [Deferasirox] |  |  | anti-inflammatory effect
